These are yes or no findings as the source states them, for the method shown. In cells and extracts the contact can be indirect. Here binding means that the protein was enriched with, or labelled near, the bait; the list need not be complete. For some of these results: No binding means not detected with the bait. Blank lines part the entries; values can stand above or below the binder they belong to.
What was measured:
[1] = biological target: T1, Podocin (mouse (endogenous in mouse glomeruli)) (UniProt Q91X05); assay: affinity purification with mass spectrometry; two anti-Podocin ABs immobilised on magnetic beads, two hours with CL-47 or CL-91 solubilisates of glomerular membrane fractions of wildtype mice; control: Podocin knockout mice; eluates by nano-LC-MS/MS; specific: tnR >0.25 with both ABs in either of two solubilisation conditions
T1 sequence: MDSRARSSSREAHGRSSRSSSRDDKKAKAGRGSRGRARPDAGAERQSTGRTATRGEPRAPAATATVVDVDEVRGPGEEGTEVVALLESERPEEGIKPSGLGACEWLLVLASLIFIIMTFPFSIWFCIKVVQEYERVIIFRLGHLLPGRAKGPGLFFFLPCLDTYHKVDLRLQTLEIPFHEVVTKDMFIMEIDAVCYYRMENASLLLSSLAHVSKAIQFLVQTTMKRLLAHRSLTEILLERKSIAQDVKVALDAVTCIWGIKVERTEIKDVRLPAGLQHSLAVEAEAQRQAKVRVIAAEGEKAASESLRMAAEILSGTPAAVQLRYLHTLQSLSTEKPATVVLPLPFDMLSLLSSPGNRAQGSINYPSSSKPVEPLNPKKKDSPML

[2] = biological target: T2, Nephrin (not stated (endogenous in glomeruli of rat or mouse)), Q9R044; assay: affinity purification with mass spectrometry; three anti-Nephrin/Neph1 ABs immobilised on magnetic beads, two hours with CL-47 or CL-91 solubilisates of glomerular membrane fractions; eluates by nano-LC-MS/MS; specific: tnR >=0.2 against three target-unrelated ABs/IgG, in at least two anti-Nephrin/Neph1 APs; conditions: remark: other sources report otherwise
T2 chain: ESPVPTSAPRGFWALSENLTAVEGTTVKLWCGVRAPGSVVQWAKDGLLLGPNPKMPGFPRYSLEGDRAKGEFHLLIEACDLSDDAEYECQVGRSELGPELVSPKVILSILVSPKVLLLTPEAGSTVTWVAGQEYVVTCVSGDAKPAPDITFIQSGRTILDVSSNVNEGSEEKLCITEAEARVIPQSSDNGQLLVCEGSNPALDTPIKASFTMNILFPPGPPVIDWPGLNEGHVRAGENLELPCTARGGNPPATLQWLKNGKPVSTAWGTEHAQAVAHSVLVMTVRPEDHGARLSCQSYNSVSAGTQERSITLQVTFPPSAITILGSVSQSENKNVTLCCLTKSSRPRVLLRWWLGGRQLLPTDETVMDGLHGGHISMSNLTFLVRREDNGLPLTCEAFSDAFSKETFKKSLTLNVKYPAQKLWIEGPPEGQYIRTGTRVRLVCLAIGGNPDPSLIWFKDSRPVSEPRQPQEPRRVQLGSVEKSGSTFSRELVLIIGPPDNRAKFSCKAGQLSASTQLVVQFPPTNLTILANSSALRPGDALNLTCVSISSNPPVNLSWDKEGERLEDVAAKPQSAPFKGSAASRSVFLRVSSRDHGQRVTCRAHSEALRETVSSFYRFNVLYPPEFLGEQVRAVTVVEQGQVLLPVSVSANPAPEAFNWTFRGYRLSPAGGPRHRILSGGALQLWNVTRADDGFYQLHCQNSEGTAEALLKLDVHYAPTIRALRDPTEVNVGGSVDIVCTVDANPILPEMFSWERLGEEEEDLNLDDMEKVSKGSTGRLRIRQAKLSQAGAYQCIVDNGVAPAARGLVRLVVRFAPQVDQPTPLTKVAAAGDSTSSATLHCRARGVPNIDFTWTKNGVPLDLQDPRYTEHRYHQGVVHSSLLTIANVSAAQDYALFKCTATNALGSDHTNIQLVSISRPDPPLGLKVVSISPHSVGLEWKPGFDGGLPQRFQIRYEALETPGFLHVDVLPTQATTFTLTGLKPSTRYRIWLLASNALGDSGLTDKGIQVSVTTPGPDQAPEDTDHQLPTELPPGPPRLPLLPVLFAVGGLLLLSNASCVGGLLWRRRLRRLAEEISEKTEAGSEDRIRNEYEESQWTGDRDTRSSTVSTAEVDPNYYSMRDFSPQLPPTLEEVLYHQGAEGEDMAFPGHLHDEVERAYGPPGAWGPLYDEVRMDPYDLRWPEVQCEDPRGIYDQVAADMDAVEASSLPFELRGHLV

B1: MFSD1 (protein, UniProt Q9DC37 1-464)
chain: MEDEDGEDRALLGGRREADSAVHGAPRALSALCDPSRLAHRLVVLSLMCFLGFGSYFCYDNPAALQTQVKRDMQVNTTKFMLLYAWYSWPNVVLCFLGGFLIDRIFGIRWGTVIFSCFVCIGQVIFALGGIFNAFWLMELGRFVFGIGGESLAVAQNTYAVSWFKGKELNLVFGLQLSMARIGSTVNMNLMGWLYGKIEALLGSAGHMTLGVTLMIGCITCIFSLICALALAYLDRRAEKILHKEQGKTGEVIKLRDIKDFSLPLILVFVICVCYYVAVFPFIGLGKVFFMEKFRFSSQSASAINSIVYIISAPMSPLFGLLVDKTGKNIIWVLYAVAATLVSHMMLAFTFWNPWIAMCLLGFSYSLLACALWPMVAFIVPEHQLGTAYGFMQSIQNLGLAVIAILAGMILDSKGYLLLEVFFIACVSLSLLAVVCLYLVNRAQGGNLNYSAKQRERMKLSHPE
binding [1]: binds

B3: Solute carrier family 5 member 11 (protein, UniProt Q8K0E3 1-673)
chain: MESATISPQPPQSDSLEAFPQKSMEPADIAVLVLYFLFVLAVGLWSTVRTKRDTVKGYFLAGGDMVWWPVGASLFASNVGSGHFIGLAGSGAAVGISVAAYELNGLFSVLMLAWVFLPIYIAGQVTTMPEYLRRRFGGNRISITLAVLYLFIYIFTKISVDMYAGAIFIQQSLHLDLYLAIVGLLAITALYTVAGGLAAVIYTDALQTVIMLIGAFILMGYSFAAVGGMEGLKDQYFLALASNRSENSSCGLPREDAFHIFRDPLTSDLPWPGILFGMSIPSLWYWCTDQVIVQRSLAAKNLSHAKGGSLMAAYLKVLPLFLMVFPGMVSRVLFPDQVACAHPDICQRVCSNPSGCSDIAYPKLVLELLPTGLRGLMMAVMVAALMSSLTSIFNSASTIFTMDLWNHIRPRASERELMIVGRIFVFALVLVSILWIPIVQASQGGQLFIYIQSISSYLQPPVAMVFIMGCFWKRTNEKGAFSGLILGLLLGLVRLILDFVYAQPRCDQPDDRPAVVKDVHYLYFSMILSFTTLITVVTVSWFTETPSKEMVSRLTWFTRHEPVAQKDSAPPETPLSLTLSQNGTTEAPGTSIQLETVQESTTKACGDGVSPRHSKVVRAILWLCGMEKNKEEPPSKAEPVIVSLEENPLVKTLLDVNCIVCISCAIFLWGYFA
binding [1]: binds

B4: Podocin, Q8K4G9 1-383 (protein)
chain: MDSRARSSSRKTHGRGSRSSSRDDKKSKAGRGNRGRARPDAGAERQSAGRTGTREEHRAPAATVVNVDEVRSPGEEGTEVVALLESERPEEGIKPSGLGACEWLLVLSSLIFIIVTFPFSIWFCIKVVQEYERVIIFRLGHLLPGRAKGPGLFFFLPCLDTYHKVDLRLQTLEIPFHEVVTKDMFIMEIDAVCYYRMENASLLLSSLAHVSKAIQFLVQTTMKRLLAHRSLTEILLERKSIAQDVKVALDSVTCVWGIKVERTEIKDVRLPAGLQHSLAVEAEAQRQAKVRVIAAEGEKAASESLRMAAEILSGTPAAVQLRYLHTLQSLSTDKPSTVVLPLPFDMLNLLSSPSNRAQGSINYPSSPKPVEPLNPKRKDSPML
binding [2]: no binding

B5: Choline transporter-like protein 2 (protein, UniProt Q8BY89 1-706)
chain: MGKDSQNYYGKHGTPQKYDPTFKGPIYNRGCTDVICCVLLFLAIVGYVAVGIIAWTHGDPRKVIYPTDSRGEFCGQKGTKNADKPFLFYFNIVKCANPLVLLEFHCPTPQICVKQCPDRYLTLLSARNTRDFDYYKQFCVPGFQNNKGVTEILRDGECPAVITPSKPLAQRCFPAIHASKGVLMVGNETTYEDGHGARKNITDLVEGAKKANKILEARQLAMQIFEDYTVSWYWIIIGLVIAMVLSLLFIVLLRFLAGIMVWVMIVMVILVLGYGIFHCYMEYSRLRGEAGSDVSLVDLGFQTDLRVYLHLRQTWMAFMIILSILEVVIILLLIFLRKRILIAIALIKEASRAVGHVMCSLLYPLVTFFLLCLCIAYWASTSVFLSTSNTAVYKVVDDTACPLLRKTCNPETFPLRNESLQCPTARCQFAFYGGESTYHRALLGLQIFNAFMFFWLANFVLALGQVTLAGAFASYYWAMRKPDDMPAFPLFSAFGRALRYHTGSLAFGSLILAIVQIIRVMLEYLDQRLKAAQNKFAKFLMVCLKCCFWCLEKFIKFLNRNAYIMIAIYGTNFCTSARNAFFLLMRNIIRVAVLDKVTDFLFLLGKLLIVGSVGILAFFFFTHRIRIVQDTAPPLNYYWVPILTVIIGSYLIAHGFFSVYGMCVDTLFLCFLEDLERNDGSAERPYFMSSTLKKLLNKTNKKVAES
binding [1]: binds

B6: Glutamyl aminopeptidase (protein, UniProt P16406 1-945)
chain: MNFAEEEPSKKYCIKGKHVAIICGVVVAVGLIVGLSVGLTRSCEQDTTPAPSQPPPEASTALPPQDQNVCPDSEDESGEWKNFRLPDFINPVHYDLEVKALMEEDRYTGIVTISVNLSKPTRDLWLHIRETKITKLPELRRPSGEQVPIRRCFEYKKQEYVVIQAAEDLAATSGDSVYRLTMEFKGWLNGSLVGFYKTTYMEDGQIRSIAATDHEPTDARKSFPCFDEPNKKSTYSISIIHPKEYSALSNMPEEKSEMVDDNWKKTTFVKSVPMSTYLVCFAVHRFTAIERKSRSGKPLKVYVQPNQKETAEYAANITQAVFDYFEDYFAMEYALPKLDKIAIPDFGTGAMENWGLVTYRETNLLYDPLLSASSNQQRVASVVAHELVHQWFGNTVTMDWWDDLWLNEGFASFFEFLGVNHAEKDWQMLSQVLLEDVFPVQEDDSLMSSHPVVVTVSTPAEITSVFDGISYSKGASILRMLQDWITPEKFQKGCQIYLKKFQFANAKTSDFWDSLQEASNLPVKEVMDTWTSQMGYPVVTVSGRQNITQKRFLLDSKADPSQPPSELGYTWNIPVRWADNDNSRITVYNRLDKGGITLNANLSGDAFLKINPDHIGFYRVNYEGGTWDWIAEALSSNHTRFSAADRSSFIDDAFALARAQLLNYKIALNLTMYLKSEEDFLPWERVISSVSYIISMFEDDRELYPMIETYFQGQVKPVADLLGWQDTGSHITKLLRASILGFACKMGDREALGNASQLFDSWLKGSASIPVNLRLLVYRYGMQNSGNEAAWNYTLEQYQKTSLAQEKEKLLYGLASVKDVKLLARYLEMLKDPNIIKTQDVFTVIRYISYNSYGKTMAWNWIQLNWDYLVSRFTINDRYLGRIVTIAEPFNTELQLWQMQSFFAKYPNAGAGAKPREQVLETVKNNIEWLNVNRQSIREWFASLP
binding [1]: binds

The remaining lines, values ahead:

binding [1]: binds
B2: Solute carrier family 22 member 19 (protein, UniProt Q8VCA0 1-551)
chain: MAFQDLIIQIGSLGRFQILHMIFVLICHALSAPHTLLENFTAAIPSHRCWVPILDNDTASDNGSRILSQDDLLRISIPLDSNLRPDKCRRYIQPQWHLLHLNGTFPTVTEPDTEPCVDGWVYDQSTFLSTTVTQWDLVCGSQALNSVAKFIYMTGIFIGYIMGGHLSDKFGRKLIFTCSLLKMAITETCVAFAPSFLIYCSLRFLSGIFSSTLRTNSALLILEWTSPKFQALVMALIFIASGVGQTLLGGLAFAFRNWHHLQLALSVPMFLLLIPTRWLSESARWLIMANKPQKSLKELKKAACVNRIKNSGDALTLEVVKTIMKEELEAAQTKPSPLDLFRTPNLRKRICLLSFVRFVSVMSLLGLLINIQYLSNNVFLLQCLYGVVCIPANVLGNFSMNYMGRRMTQLIFMSVLGISILAVVFLPQEMQILRVFLSTLGGAISSASITSTLVHANELVPTIIRATALGVVGIAGSAGGALSPLLMILTTYSASLPWIIYGILPFLGGLVALLLPETKNQPLPDSIQDIENKRKSSKEAKKDVVAKVTPL

binding [1]: binds
B7: Solute carrier family 13 member 3 (protein, UniProt Q91Y63 1-600)
chain: MAALAALAKKVWSARRLLVLLLVPLALLPILFALPPKEGRCLYVILLMAVYWCTEALPLSVTALLPIILFPFMGILPSSKVCPQYFLDTNFLFLSGLIMASAIEEWNLHRRIALKVLMLVGVQPARLILGMMVTTSFLSMWLSNTASTAMMLPIASAILKSLFGQREARKDLPREGDESTAAVQGNGLRTVPTEMQFLASSEGGHTEDAEAPMELPDDSKEEEHRRNIWKGFLISIPYSASIGGTATLTGTAPNLILLGQLKSFFPQCDVVNFGSWFIFAFPLMLLFLLVGWLWISFLYGGMSWRSWRKKKSKIRADAEDQAKAVIQEEFQNLGPIKFAEQAVFILFCTFAILLFSRDPKFIPGWASLFAPGFVSDAVTGVAIVTILFFFPSQKPSLKWWFDFKAPNSETEPLLSWKKAQETVPWNIILLLGGGFAMAKGCEESGLSAWIGGQLHPLEHVPPLLAVLLITVVIAFFTEFASNTATIIIFLPVLAELAIRLHVHPLYLMIPGTVGCSYAFMLPVSTPPNSIAFSTGHLLVKDMVRTGLLMNLMGVLLLSLAMNTWAQTIFQLGTFPDWANTHAANATALPPALTNNTVQTF

Reference: PMC9616960
